According to the supplement of paper PMC9135407:
Values joined by “and” are separate entries in the source; they are usually repeats but may differ in a detail not shown here. Equal values may be shown once. Where a name gives a salt, the structure may show the parent alone. ± gives the standard deviation of the averaged measurements. The list shows a part of the results. Part of the spread comes from offsets between plates or batches.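 Assay uses culture-activated primary human stellate myofibroblasts; lipid droplet recovery indicates inactivation. Measured: proportion of Hoechst-counted cells over a plate-specific Bodipy cutoff, duplicate wells, DMSO and nortriptyline as per-plate negative and positive controls. A hit scores, control-normalized, above the plate's top-tenth-percentile nortriptyline wells or ranks among its three best wells. Final well concentrations not reported.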

System: primary human hepatic stellate cells (donor 1)
Test: percent Bodipy-positive cells; higher = more lipid droplet accumulation
Settings: 48 h
[1] = library stock concentration: 10 mM
[2] = library stock concentration: 3.33 mM
[3] = library stock concentration: 1 mM
[4] = library stock concentration: 80 uM

## COc1ccc(CN(CCN(C)C)c2ccccn2)cc1 [Mepyramine maleate]
Library stock concentration: 7 mM
  percent Bodipy-positive cells: 16 ± 4.2%
[1]
  percent Bodipy-positive cells: 25.8 ± 3%

## COc1ccc(CN(CCN(C)C)c2ccccn2)cc1 [Pyrilamine maleate]
  percent Bodipy-positive cells: 45.7 ± 8.7%
Library stock concentration: 5 mM
  percent Bodipy-positive cells: 33.2 ± 8%

## COc1cc(/C=C/C(=O)N2CCN(CC(=O)N3CCCC3)CC2)cc(OC)c1OC [Cinepazide maleate]
[2]
  percent Bodipy-positive cells: 12.1 ± 0.91%
[1]
  percent Bodipy-positive cells: 11.8 ± 3.1%

## CCCCC[C@H](O)/C=C/[C@@H]1[C@@H](C/C=C\CCCC(=O)N(CC)CC)[C@@H](O)C[C@H]1O [Prostaglandin F2.alpha. diethyl amide]
[3]
  percent Bodipy-positive cells: 9.82 ± 2.1%

## O=C(Nc1ccc(OC(F)(F)F)cc1)c1sccc1NCc1ccnc2ccccc12
[4]
  percent Bodipy-positive cells: 8.92 ± 2.9%
Library stock concentration: 400 uM
  percent Bodipy-positive cells: 10.11 ± 0.045%
Library stock concentration: 2 mM
  percent Bodipy-positive cells: 16.5 ± 10%
[2]
  percent Bodipy-positive cells: 22.1 ± 8.7%
[1]
  percent Bodipy-positive cells: 23.6% and 18.6%

## Cn1c(=O)cc(N2CCC[C@@H](N)C2)n(Cc2cc(F)ccc2C#N)c1=O [Trelagliptin]
[2]
  percent Bodipy-positive cells: 25.75 ± 0.2%
[1]
  percent Bodipy-positive cells: 36.1 ± 6.1%

## CN(C)CCC(c1ccc(Cl)cc1)c1ccccn1 (single isomer, unassigned; (+)) [(+)-Chlorpheniramine maleate]
[1]
  percent Bodipy-positive cells: 83.29 ± 0.34%

## COc1cc2nc(N3CCCN(C)CC3)nc(NC3CCN(Cc4ccccc4)CC3)c2cc1OC.Cl.Cl.Cl.O
[3]
  percent Bodipy-positive cells: 99.81 ± 0.27%

## O=C(N[C@@H](Cc1ccccc1)C(=O)CCl)OCc1ccccc1 [Z-L-Phe chloromethyl ketone]
[1]
  percent Bodipy-positive cells: 97.57 ± 0.53%

## Cc1cc2c(cc1Cl)N(C(=O)Nc1ccc(Oc3cccnc3C)nc1)CC2
[1]
  percent Bodipy-positive cells: 89.2 ± 9.2%

## Cc1scc2c1N(C(=O)CN1CCN(C)CC1)c1ccccc1NC2=O [Telenzepine 2HCl]
Library stock concentration: 5.4 mM
  percent Bodipy-positive cells: 9.81 ± 0.55%

## Cc1scc2c1N(C(=O)CN1CCN(C)CC1)c1ccccc1NC2=O [Telenzepine dihydrochloride]
  percent Bodipy-positive cells: 26.8 ± 2.1%
[1]
  percent Bodipy-positive cells: 25.8% and 9.65%

## Cc1scc2c1N(C(=O)CN1CCN(C)CC1)c1ccccc1NC2=O [Telenzepine hydrochloride]
[1]
  percent Bodipy-positive cells: 39.1 ± 5.2%

## C=C1c2cccc(O)c2C(=O)C2=C(O)[C@]3(O)C(=O)C(C(N)=O)=C(O)[C@@H](N(C)C)[C@@H]3[C@@H](O)[C@H]12 [Methacycline hydrochloride]
  percent Bodipy-positive cells: 5.25 ± 0.28%
[1]
  percent Bodipy-positive cells: 18.8 ± 4.3%

## C#CCOc1ccccc1CCCCCC(=O)NS(C)(=O)=O
[3]
  percent Bodipy-positive cells: 7.72 ± 0.094%

## c1ccc(C2CN3CCSC3=N2)cc1 (stereo not drawn) [Tetramisole hydrochloride]
  percent Bodipy-positive cells: 31.3 ± 2.7%
[1]
  percent Bodipy-positive cells: 17.1 ± 6%

## c1ccc(C2CN3CCSC3=N2)cc1 (stereo not drawn)
[1]
  percent Bodipy-positive cells: 29.2 ± 2.3%

## COc1cc2cc3c4cc(OC)c(OC)cc4cc[n+]3c(C)c2cc1OC [Coralyne chloride hydrate]
  percent Bodipy-positive cells: 20.1 ± 3.1%

## COc1cc2cc3c4cc(OC)c(OC)cc4cc[n+]3c(C)c2cc1OC [Coralyne chloride]
[1]
  percent Bodipy-positive cells: 19 ± 2.7%

## Cn1c(=O)c2nc[nH]c2n(C)c1=O [Theophylline monohydrate]
  percent Bodipy-positive cells: 9.5 ± 7%

## Cn1c(=O)c2nc[nH]c2n(C)c1=O [Theophylline]
[1]
  percent Bodipy-positive cells: 24.2% and 13.1% and 30%

## CC(C)(C)NC[C@H](O)COc1nsnc1N1CCOCC1 [Timolol maleate salt]
  percent Bodipy-positive cells: 10.2 ± 3.7%

## CC(C)(C)NC[C@H](O)COc1nsnc1N1CCOCC1 [Timolol maleate (s)]
Library stock concentration: 6.3 mM
  percent Bodipy-positive cells: 10.8 ± 4.5%

## CC(C)(C)NC[C@H](O)COc1nsnc1N1CCOCC1 [Timolol maleate]
[1]
  percent Bodipy-positive cells: 16 ± 2.6%

## CC(C)(C)NC[C@H](O)COc1nsnc1N1CCOCC1 [Timolol Maleate]
[2]
  percent Bodipy-positive cells: 14.5 ± 5.2%
[1]
  percent Bodipy-positive cells: 23.8 ± 9.3%

## CC(C)(C)NC[C@H](O)COc1nsnc1N1CCOCC1 [(S)-Timolol maleate]
[1]
  percent Bodipy-positive cells: 6.62 ± 2.1%

## CC(C)(C)NC[C@H](O)COc1nsnc1N1CCOCC1 [S(-)-Timolol maleate]
[1]
  percent Bodipy-positive cells: 14.6% and 34%

## C[C@]12CCC(=O)C=C1CC[C@@H]1[C@@H]2[C@@H](O)C[C@@]2(C)[C@H]1CC[C@]2(O)C(=O)COC(=O)CCC(=O)O
[1]
  percent Bodipy-positive cells: 17.8 ± 0.41%

## C[C@]12CCC(=O)C=C1CC[C@@H]1[C@@H]2[C@@H](O)C[C@@]2(C)[C@H]1CC[C@]2(O)C(=O)COC(=O)CCC(=O)O [Hydrocortisone hemisuccinate]
[1]
  percent Bodipy-positive cells: 10.2 ± 2.1%

## Cc1ccc(C(=O)Nc2ccc(CN3CCN(C)CC3)c(C(F)(F)F)c2)cc1C#Cc1cnc2cccnn12
[4]
  percent Bodipy-positive cells: 50.7 ± 1.3%
[1]
  percent Bodipy-positive cells: 100%

## O=C(Nc1cccc2c(=O)cc(-c3nnn[nH]3)oc12)c1ccc(OCCCCc2ccccc2)cc1 [Pranlukast]
[3]
  percent Bodipy-positive cells: 15.9 ± 12%
[2]
  percent Bodipy-positive cells: 7.95 ± 4.2%
[1]
  percent Bodipy-positive cells: 18.1 ± 5%

## c1ccc2c(c1)CCC[C@H]2Nc1nc2ccccc2[nH]1 [NS8593 hydrochloride]
[1]
  percent Bodipy-positive cells: 61.5 ± 2.6%

## NCCCC[C@H](N[C@@H](CCc1ccccc1)C(=O)O)C(=O)N1CCC[C@H]1C(=O)O [Lisinopril]
  percent Bodipy-positive cells: 34.9 ± 16%
Library stock concentration: 4.9 mM
  percent Bodipy-positive cells: 14.4% and 12.1%
[1]
  percent Bodipy-positive cells: 16.6 ± 5.4%

## NC1(C(=O)O)CCCC1 [Cycloleucine]
[1]
  percent Bodipy-positive cells: 40.6 ± 17%

## COc1ccc(NC(=O)c2ccc(-c3ccc(-c4noc(C)n4)cc3C)cc2)cc1OCCN(C)C
[1]
  percent Bodipy-positive cells: 95.5 ± 2.1%

## FC(F)(F)c1ccccc1-n1ccnc1 [1-[2-(Trifluoromethyl)phenyl]imidazole]
[1]
  percent Bodipy-positive cells: 13.1 ± 4.5%

## O=C(c1cccc(Cl)c1F)N1CCN(Cc2cccc(Nc3nccs3)n2)CC1
[2]
  percent Bodipy-positive cells: 14.9 ± 1.2%
[1]
  percent Bodipy-positive cells: 68.9 ± 11%

## CC(C)[C@H]1C(=O)N[C@@H](CCCNC(=N)N)C(=O)NCC(=O)N[C@@H](CC(=O)O)C(=O)N[C@H](Cc2ccccc2)C(=O)N1C [Cilengitide]
[2]
  percent Bodipy-positive cells: 29.8 ± 3.1%
[1]
  percent Bodipy-positive cells: 77 ± 7.8%

## CSc1ccc2c(c1)C(N1CCN(C)CC1)Cc1ccccc1S2.O=C(O)/C=C\C(=O)O (stereo not drawn) [Methiothepin maleate]
[1]
  percent Bodipy-positive cells: 94.461 ± 0.055%
